PubChem BioAssay AID1159578 – Peter MacCallum Cancer Centre – 2015

- Test: 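Genome-wide hunt for genes controlling movement of lymphatic endothelial cells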 (primary screen)
- Cell system: human lymphatic endothelial cells
- Knock-down reagent: siRNA pool against human genes, 40 nM
- Time to read-out: 48 h after transfection
- Detection: 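Cells stained with dye and imaged after a scratch; covered wound area and nuclei counted, duplicates averaged, migration set against mock wells and turned into a robust z-score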
- Reading the numbers: migration robust z-score: higher = faster migration into the scratch; migration relative to mock: higher = more scratch area covered than mock; nuclei per well: higher = more cells in the well
- Call rule: 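Pools averaging fewer than 3300 nuclei are never called; remaining pools count as changed when migration robust z lies outside -2 to 2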
- Meaning of the calls: active = migration changed; inactive = no migration change, or too few cells
Here is an unselected part of about 18,000 deposited reagents. Of all reagents, about 1,030 (5.7%) were called active. 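Inactive calls also include pools with fewer than 3300 nuclei, whose migration was not assessed.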 Raw values vary from plate to plate and are shown uncorrected. Unmarked entries are inactive.

gene	migration robust z-score	migration class with cell-count check	migration relative to mock	nuclei per well, duplicate mean
OGG1	-1.06	migration z between -2 and 2; enough cells	0.6	4926
DYNC1LI2	-1.14	migration z between -2 and 2; enough cells	0.58	7488
HMGN2	-1.62	under 3300 nuclei; migration not judged	0.46	2184
OR8U8	0.71	migration z between -2 and 2; enough cells	1.07	6068
SRSF11	1.52	migration z between -2 and 2; enough cells	1.28	5799
SIGLEC12	0.65	migration z between -2 and 2; enough cells	1.06	5725
COX14	0.31	migration z between -2 and 2; enough cells	0.96	6594
UTP25	-4.31	under 3300 nuclei; migration not judged	-0.26	2014
PLEKHA5	-3.38	under 3300 nuclei; migration not judged	0.01	3145
LELP1	1.42	migration z between -2 and 2; enough cells	1.25	5451
OPRPN	3.34 (active)	migration z above 2; enough cells	1.75	6730
ATAT1	0.46	migration z between -2 and 2; enough cells	1	6094
EOGT	-0.66	migration z between -2 and 2; enough cells	0.72	5181
CHST5	-3.11 (active)	migration z below -2; enough cells	0.2	4434
CCDC74A	-0.29	migration z between -2 and 2; enough cells	0.81	5536
HSDL1	2.54 (active)	migration z above 2; enough cells	1.29	5715
RAPGEF1	1.45	migration z between -2 and 2; enough cells	1.26	6500
PIP4K2C	-0.65	migration z between -2 and 2; enough cells	0.68	5246
CRTAP	0.66	migration z between -2 and 2; enough cells	1.06	5514
OR8D2	-0.3	migration z between -2 and 2; enough cells	0.8	5382
IL17B	-0.64	migration z between -2 and 2; enough cells	0.72	5654
SLC6A4	0.83	migration z between -2 and 2; enough cells	0.97	5450
FAM194C	-1.18	migration z between -2 and 2; enough cells	0.58	6107
GJC2	-0.99	migration z between -2 and 2; enough cells	0.62	3746
HACE1	0.05	migration z between -2 and 2; enough cells	0.81	3617
TIMM10	-1.87	migration z between -2 and 2; enough cells	0.4	4892

The list goes on, starting with the last 7 of the part before.
gene	migration robust z-score	migration class with cell-count check	migration relative to mock	nuclei per well, duplicate mean
OR8D2	-0.3	migration z between -2 and 2; enough cells	0.8	5382
IL17B	-0.64	migration z between -2 and 2; enough cells	0.72	5654
SLC6A4	0.83	migration z between -2 and 2; enough cells	0.97	5450
FAM194C	-1.18	migration z between -2 and 2; enough cells	0.58	6107
GJC2	-0.99	migration z between -2 and 2; enough cells	0.62	3746
HACE1	0.05	migration z between -2 and 2; enough cells	0.81	3617
TIMM10	-1.87	migration z between -2 and 2; enough cells	0.4	4892
HIPK2	-0.7	migration z between -2 and 2; enough cells	0.67	4284
ADAM2	-0.02	migration z between -2 and 2; enough cells	0.8	5412
ENTPD5	-0.76	migration z between -2 and 2; enough cells	0.66	5798
HMGCLL1	0.64	migration z between -2 and 2; enough cells	0.93	6169
FGF11	0.54	migration z between -2 and 2; enough cells	0.91	6462
PAX8	-0.84	migration z between -2 and 2; enough cells	0.66	7196
IRF2BP2	-0.44	migration z between -2 and 2; enough cells	0.77	4187
SLC2A5	-1.04	migration z between -2 and 2; enough cells	0.61	5092
PTGFRN	0.36	migration z between -2 and 2; enough cells	0.98	5795
PSG4	0.44	migration z between -2 and 2; enough cells	1	5432
ARMCX1	1.2	migration z between -2 and 2; enough cells	1.2	6334
COPS7A	1.93	migration z between -2 and 2; enough cells	1.38	5915
ZNF322	0.02	migration z between -2 and 2; enough cells	0.89	4567
TKT	-0.8	migration z between -2 and 2; enough cells	0.65	6009
SENP1	1.17	migration z between -2 and 2; enough cells	1.03	5465
REM2	-0.87	migration z between -2 and 2; enough cells	0.66	3980
CPNE2	-1.54	migration z between -2 and 2; enough cells	0.48	6052
PLEK	-0.1	migration z between -2 and 2; enough cells	0.86	5361
TARS1	-0.98	migration z between -2 and 2; enough cells	0.62	5942
RIDA	0.04	migration z between -2 and 2; enough cells	0.89	5902
SLC2A13	0.86	migration z between -2 and 2; enough cells	0.97	5744
NGLY1	0.36	migration z between -2 and 2; enough cells	0.88	4378
UQCC2	0.62	migration z between -2 and 2; enough cells	1.04	5036
GCGR	-2.21 (active)	migration z below -2; enough cells	0.38	5710
HPX	-0.78	migration z between -2 and 2; enough cells	0.68	5796
SYCP2L	-2.54 (active)	migration z below -2; enough cells	0.23	6160
WSCD1	0.57	migration z between -2 and 2; enough cells	1.04	5497
ARHGEF10L	0.18	migration z between -2 and 2; enough cells	0.93	4541
ZNF800	-0.52	migration z between -2 and 2; enough cells	0.74	6292
RAB39B	-0.16	migration z between -2 and 2; enough cells	0.84	6206
FBLN5	-0.48	migration z between -2 and 2; enough cells	0.76	5501
